The text below walks through data of paper doi:10.1101/2024.10.07.616933.

The chains behind the UniProt entries cited, without tags or fusion partners. Where a name states a change or a piece, a line headed by the entry shows the natural chain unless it says otherwise.
UniProt Q96SW2: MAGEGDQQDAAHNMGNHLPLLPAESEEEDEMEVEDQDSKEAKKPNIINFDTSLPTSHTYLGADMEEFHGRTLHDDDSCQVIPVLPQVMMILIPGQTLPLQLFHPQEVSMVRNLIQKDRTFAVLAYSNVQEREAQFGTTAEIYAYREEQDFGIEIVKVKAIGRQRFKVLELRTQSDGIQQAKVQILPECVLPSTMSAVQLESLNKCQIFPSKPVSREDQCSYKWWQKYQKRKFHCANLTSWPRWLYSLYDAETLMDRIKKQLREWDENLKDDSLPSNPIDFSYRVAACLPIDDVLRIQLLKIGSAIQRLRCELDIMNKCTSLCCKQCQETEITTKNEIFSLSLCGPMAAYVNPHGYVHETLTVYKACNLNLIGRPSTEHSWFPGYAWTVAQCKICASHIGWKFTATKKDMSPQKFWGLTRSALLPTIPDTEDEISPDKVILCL
UniProt Q16531: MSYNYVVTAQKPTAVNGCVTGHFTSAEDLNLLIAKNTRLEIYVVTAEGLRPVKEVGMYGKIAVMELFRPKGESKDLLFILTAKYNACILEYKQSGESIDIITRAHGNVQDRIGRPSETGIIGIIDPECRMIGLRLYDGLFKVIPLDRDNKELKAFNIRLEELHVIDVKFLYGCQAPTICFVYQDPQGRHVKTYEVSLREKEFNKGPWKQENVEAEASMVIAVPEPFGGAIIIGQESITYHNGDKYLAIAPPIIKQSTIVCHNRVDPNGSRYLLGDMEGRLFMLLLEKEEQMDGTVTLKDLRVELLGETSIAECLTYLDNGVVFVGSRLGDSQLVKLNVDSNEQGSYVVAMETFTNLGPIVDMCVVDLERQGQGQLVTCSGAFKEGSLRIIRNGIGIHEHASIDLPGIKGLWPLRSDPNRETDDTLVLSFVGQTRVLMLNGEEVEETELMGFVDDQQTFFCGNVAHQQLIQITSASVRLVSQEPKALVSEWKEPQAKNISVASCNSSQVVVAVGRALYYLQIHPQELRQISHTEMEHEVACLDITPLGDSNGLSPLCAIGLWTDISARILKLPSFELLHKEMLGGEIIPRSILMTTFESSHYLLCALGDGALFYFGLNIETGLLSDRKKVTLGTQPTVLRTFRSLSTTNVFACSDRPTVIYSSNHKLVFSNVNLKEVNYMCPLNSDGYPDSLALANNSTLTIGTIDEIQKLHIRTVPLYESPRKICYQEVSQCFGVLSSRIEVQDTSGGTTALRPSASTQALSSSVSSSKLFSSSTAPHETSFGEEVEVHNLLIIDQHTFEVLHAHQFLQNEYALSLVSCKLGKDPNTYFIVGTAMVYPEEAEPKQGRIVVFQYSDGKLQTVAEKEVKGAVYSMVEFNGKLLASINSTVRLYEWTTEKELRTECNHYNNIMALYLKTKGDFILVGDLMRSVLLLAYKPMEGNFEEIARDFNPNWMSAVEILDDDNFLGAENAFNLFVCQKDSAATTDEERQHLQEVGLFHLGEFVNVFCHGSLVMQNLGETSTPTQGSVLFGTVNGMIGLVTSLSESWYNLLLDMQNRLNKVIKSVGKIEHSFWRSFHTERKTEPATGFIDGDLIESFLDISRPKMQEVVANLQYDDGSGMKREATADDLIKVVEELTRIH

Test [1] concerns the target 6His-tagged CRBN/DDB1 complex (MRT-CRBN-B11/DDB1-B05) (human) (UniProt Q96SW2+Q16531). The experiment in a line: AlphaScreen or HTRF. On the technique in general: In Alpha technology, singlet oxygen from a donor bead excites a nearby acceptor bead.
The next test deals with HaloTag-CRBN (human) (UniProt Q96SW2). As to the kind of experiment: FRET or BRET. (BRET reads energy transfer from a luciferase to a nearby fluorophore.)

Results are given in words; binding and its absence hold for the method and conditions named. For some assays here: Binding seen in cells or lysates may run through a third protein. Sequences can lack the tags named with a protein.

B1: MRT-Vav3 SH3-E01: GST-GGG-TEV-Vav3(K788-847E) (domain or fragment, UniProt Q9UKW4 788-847)
chain: KVLGIAIARYDFCARDMRELSLLKGDVVKIYTKMSANGWWRGEVNGRVGWFPSTYVEEDE
Regarding B1, the binding entry in test [1] was “no binding”.

B2: MRT-Vav3 SH3-E02: GST-GGG-TEV-Vav3(K788-847E, Y818L, T819N, M821K, S822G, A823Q, N824Q) (domain or fragment, UniProt Q9UKW4 788-847)
chain: KVLGIAIARYDFCARDMRELSLLKGDVVKILNKKGQQGWWRGEVNGRVGWFPSTYVEEDE
B2: the binding entry in test [1] is recorded as “no binding”.

B3: full-length VAV1 RT-loop mutant (R798M, S799R), NanoLuc fusion (protein, UniProt P15498 1-845)
chain: MELWRQCTHWLIQCRVLPPSHRVTWDGAQVCELAQALRDGVLLCQLLNNLLPHAINLREVNLRPQMSQFLCLKNIRTFLSTCCEKFGLKRSELFEAFDLFDVQDFGKVIYTLSALSWTPIAQNRGIMPFPTEEESVGDEDIYSGLSDQIDDTVEEDEDLYDCVENEEAEGDEIYEDLMRSEPVSMPPKMTEYDKRCCCLREIQQTEEKYTDTLGSIQQHFLKPLQRFLKPQDIEIIFINIEDLLRVHTHFLKEMKEALGTPGAANLYQVFIKYKERFLVYGRYCSQVESASKHLDRVAAAREDVQMKLEECSQRANNGRFTLRDLLMVPMQRVLKYHLLLQELVKHTQEAMEKENLRLALDAMRDLAQCVNEVKRDNETLRQITNFQLSIENLDQSLAHYGRPKIDGELKITSVERRSKMDRYAFLLDKALLICKRRGDSYDLKDFVNLHSFQVRDDSSGDRDNKKWSHMFLLIEDQGAQGYELFFKTRELKKKWMEQFEMAISNIYPENATANGHDFQMFSFEETTSCKACQMLLRGTFYQGYRCHRCRASAHKECLGRVPPCGRHGQDFPGTMKKDKLHRRAQDKKRNELGLPKMEVFQEYYGLPPPPGAIGPFLRLNPGDIVELTKAEAEQNWWEGRNTSTNEIGWFPCNRVKPYVHGPPQDLSVHLWYAGPMERAGAESILANRSDGTFLVRQRVKDAAEFAISIKYNVEVKHIKIMTAEGLYRITEKKAFRGLTELVEFYQQNSLKDCFKSLDTTLQFPFKEPEKRTISRPAVGSTKYFGTAKARYDFCARDMRELSLKEGDIIKILNKKGQQGWWRGEIYGRVGWFPANYVEEDYSEYC
For the molecule B3, the binding entry with HaloTag-CRBN (human) was “no binding (tested: Cpd. 6 up to 10 μM)”.

B4: MRT-Vav2SH3-E01: GST-TEV-(Vav2 SH3 domain R816-878Q) (domain or fragment, UniProt P52735 816-878)
chain: RVIGTAVARYNFAARDMRELSLREGDVVRIYSRIGGDQGWWKGETNGRIGWFPSTYVEEEGIQ
As to B4, the binding result in test [1] is recorded as “no binding”.

B5: MRT-Vav1-E20: GST-TEV-(Vav1 SH3 domain K782-845 with mutations R798M, S799R) (domain or fragment, UniProt P15498 782-845)
chain: KYFGTAKARYDFCARDMRELSLKEGDIIKILNKKGQQGWWRGEIYGRVGWFPANYVEEDYSEYC
Consider B5, for which the binding entry in test [1] is listed as “no binding”.
